{"source": "patent US12668573B2", "about": "(Zhejiang Yangshengtang Institute of Natural Medication Co., …, priority 2018, dated 2026)", "data": [{"assay": "general procedure: solution-phase peptide synthesis; HOBt, DIPEA", "conditions": "conjugation step", "units": {"conjugation yield": "% yield"}, "values": [{"substance": "Maa-C6-Val-Ala-PAB-MMAE", "conjugation yield": 57}, {"substance": "Maa-C6-Val-Cit-PAB-MMAE", "conjugation yield": 57}, {"substance": "Mf-C3-Val-Ala-PAB-MMAE", "conjugation yield": 68}, {"substance": "Mf-C6-Val-Cit-PAB-MMAE", "conjugation yield": 56}, {"substance": "Mm-C3-Val-Ala-PAB-MMAE", "conjugation yield": 69}, {"substance": "Mm-C6-PEG4-Val-Ala-PAB-MMAE", "conjugation yield": 63}, {"substance": "Mm-C6-Val-Ala-PAB-MMAE", "conjugation yield": 75}, {"substance": "Mm-C6-Val-Cit-PAB-MMAE", "conjugation yield": 68}]}]}
